Reference: paper PMC10094921 (International Journal of Molecular Sciences, 2023)
HELM strings list residues between dots; [ac] is acetyl, [am] amide, other brackets name non-standard units.

Assay: general procedure: Fmoc solid-phase peptide synthesis; Rink Amide-MBHA resin (substitution 0.285 mmol/g and 0.36 mmol/g); HCTU/HATU with DIEA
Details: whole synthesis, 214 nm, scale of the general procedure 0.1 or 0.2 mmol

**Q.** Which “final HPLC purity” value does the source give for “PEPTIDE1{[Pal].[PEG6].V.I.K.L.S.G.R.E.L.V.R.A.Q.I.A.I.S.G.M.S.T.W.S.K.R.S.L.[am]}$$$$V2.0” here?
**A.** 99.92%

**Q.** With “PEPTIDE1{K.[PEG12].V.I.K.L.S.G.R.E.L.V.R.A.Q.I.A.I.S.G.M.S.T.W.S.K.R.S.L.[am]}|PEPTIDE2{[Pal].[gGlu]}$PEPTIDE1,PEPTIDE2,1:R3-2:R2$$$V2.0” as the substance, how does the “final HPLC purity” value read?
**A.** 99.72%

**Q.** Which “final HPLC purity” value does the source give for “PEPTIDE1{E.Y.E.K.E.Y.E.V.I.K.L.S.G.R.E.L.V.R.A.Q.I.A.I.S.G.M.S.T.W.S.K.R.S.L.[am]}|PEPTIDE2{[Pal]}$PEPTIDE1,PEPTIDE2,4:R3-1:R2$$$V2.0” here?
**A.** 97.68%
